No constants are given. Whether binding was seen depends on the method and setting. In cells and extracts the contact can be indirect. A yes stands for co-enrichment or nearness to the bait. Other partners may have been found. Where a sequence is shown, tags or fusion partners need not be part of it.
Assays:
[1] = biological target: Myxococcus xanthus encapsulin (T3 encapsulin shell) (M. xanthus) (UniProt Q1D6H4); experiment: co-purification of cargo with encapsulin particles (SDS-PAGE and in-gel tryptic digest mass spectrometry); cargo induced first (IPTG, 6 h), then encapsulin (L-arabinose, 18 h) in E. coli; particles purified by PEG-8000 precipitation, size exclusion (Sephacryl S-500) and anion exchange (DEAE); bands analysed by SDS-PAGE and MS
[2] = biological target: Thermotoga maritima encapsulin (T1 encapsulin shell) (T. maritima) (UniProt Q9WZP2); experiment: as above

Row | binding [1] | binding [2] | Binder
1 | binds |  | PLTVGSLRRGG (native 11-residue targeting peptide of the M. xanthus (T3) encapsulin system; The targeting peptide is at the C-terminus of mNeonGreen; also called mNeonGreenTP (native T3 TP); native T3 TP; source: E. coli One shot BL21 (DE3) Star, pCDF-Duet1, IPTG induced before encapsulin; co-purified with encapsulin particles; not shown: mNeonGreen, N-terminal, kept) [mNeonGreen C-terminally fused to the native T3 targeting peptide]
2 |  | binds | NTGGDLGIRK (native targeting peptide of the T. maritima (T1) encapsulin system, from the C-terminus of the native cargo protein; The targeting peptide is at the C-terminus of mNeonGreen; also called mNeonGreenTP (native T1 TP); native T1 TP; source: E. coli One shot BL21 (DE3) Star, pCDF-Duet1, IPTG induced before encapsulin; co-purified with encapsulin particles; not shown: mNeonGreen, N-terminal, kept) [mNeonGreen C-terminally fused to the native T1 targeting peptide]
